From article PMC12400496 (Bioscience Reports, 2025)
These are yes or no findings as the source states them, for the method shown. A result given as binding can be weak or reduced; the word gives no strength. Sequences can lack the tags named with a protein.

Biological target: T1, FAD reductase CtcQ from Kitasatospora aureofaciens (N-terminal tag removed) (Kitasatospora aureofaciens) (UniProt S4S3E3)
T1 sequence: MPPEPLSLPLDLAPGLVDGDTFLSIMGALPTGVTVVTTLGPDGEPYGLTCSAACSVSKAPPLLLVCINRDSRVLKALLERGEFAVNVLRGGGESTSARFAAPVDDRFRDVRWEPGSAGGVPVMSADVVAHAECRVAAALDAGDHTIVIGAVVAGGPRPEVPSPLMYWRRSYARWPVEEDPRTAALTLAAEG
Assay: native gel or EMSA; CtcQ (70 μM) mixed with CtcP at various concentrations in 20 mM HEPES pH 7.5, on ice overnight; 1.7% agarose gel at 4 °C in 25 mM Tris, 192 mM glycine; Coomassie stain; both purified

binding: binds weakly
Substance: halogenase CtcP from Kitasatospora aureofaciens, full-length (enzyme)
